In PubChem BioAssay AID1671190 (National Center for Advancing Translational Sciences (NCATS), 2021):
Out of some 580,000 compounds screened, about 6,100 (1.1%) were called active. The shares of active, inactive and inconclusive entries below differ from those in the screen. Calls come from the whole dose curve; as a rule, active = well fitted inhibition curve with a large enough effect; inconclusive = small, poorly fitted or top-dose-only effect, or another doubt; inactive = no such curve, though single readings can be large or run the other way. Potencies of inconclusive entries are doubtful fits and often do not repeat.

Amino acid sequences for entries named in this document (tags omitted). A change or cut given only in a name is not applied to a line headed by its entry.
UniProt P18054: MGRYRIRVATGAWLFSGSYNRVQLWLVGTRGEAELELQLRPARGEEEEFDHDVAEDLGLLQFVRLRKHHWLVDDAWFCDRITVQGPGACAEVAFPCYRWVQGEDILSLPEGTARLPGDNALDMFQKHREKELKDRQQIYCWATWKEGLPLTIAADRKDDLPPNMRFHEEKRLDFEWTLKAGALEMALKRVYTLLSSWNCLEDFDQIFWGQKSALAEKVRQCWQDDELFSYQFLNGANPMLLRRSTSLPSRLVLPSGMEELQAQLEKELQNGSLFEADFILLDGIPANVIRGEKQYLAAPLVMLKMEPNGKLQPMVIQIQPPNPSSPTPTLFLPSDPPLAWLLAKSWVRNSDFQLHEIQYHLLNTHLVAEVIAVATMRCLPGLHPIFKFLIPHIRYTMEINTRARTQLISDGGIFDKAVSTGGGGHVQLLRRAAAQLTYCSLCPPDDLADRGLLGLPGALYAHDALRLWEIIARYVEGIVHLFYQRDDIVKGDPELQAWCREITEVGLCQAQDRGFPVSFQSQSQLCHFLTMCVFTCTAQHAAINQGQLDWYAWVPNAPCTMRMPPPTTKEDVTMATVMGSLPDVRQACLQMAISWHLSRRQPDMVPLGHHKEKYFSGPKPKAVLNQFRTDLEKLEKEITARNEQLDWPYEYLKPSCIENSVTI

Each molecule was assayed against Polyunsaturated fatty acid lipoxygenase ALOX12 (Homo sapiens) (UniProt P18054) (assay: Primary qHTS assay for inhibitors of human arachidonate 12S-lipoxygenase (ALOX12): Round 2). Details: purified 12hLO, xylenol orange hydroperoxide absorbance; activity change, negative = inhibition: at 108 µM (top of the series) unless noted.
Outline: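 Purified human 12hLO (150 nM final) in 25 mM Hepes, 0.01% Triton X-100, pH 7.0 was preincubated 15 min at room temperature with compound. Then 40 uM arachidonic acid was added, 30 min. Hydroperoxide was read by Fe-XO absorbance ratio 573/405 nm.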
% is set by controls: 0 for no effect and ±100 for the full control effect; potency is the fitted concentration of half-maximal effect.

SMILES | Potency | activity change, negative = inhibition
CCCCc1nc2sc3c(SCC(=O)NCc4ccco4)ncnc3c2c2c1CCC2 | inconclusive: 56.2 µM [inhibitor, partial curve, poor fit] | 
COC(=O)Nc1sc2c(c1C(=O)NC1CC1)CCCCCC2 | inconclusive: 141 µM [inhibitor, single point] | 
CN(Cc1ccccc1)C(=O)C[C@@H]1c2nc(NC(=O)c3ccc(F)cc3)sc2C[C@@H]2[C@](C)(CO)[C@H](O)CC[C@]21C | inconclusive: 35.5 µM [inhibitor, partial curve] | 
Cc1cc(C)cc(NC(=O)CSc2nccn2-c2ccccc2)c1 |  | inactive: -3.84%
Cc1ccc(S(=O)(=O)Nc2nc(C)c(NC(=O)Nc3ccc(Cl)cc3Cl)s2)cc1 | active: 2 µM | 
Cc1oc(-c2ccc(Cl)cc2)nc1CS(=O)CC(=O)NC(C)c1ccccc1 (stereo not drawn) | inconclusive: 44.7 µM [inhibitor, partial curve, poor fit] | 
CC(C)Cc1nc2cccnc2n1C1CCN(S(=O)(=O)c2ccc(Br)s2)CC1 |  | inactive: -18.2%
COc1ccc(/C=C(\C#N)c2nc3ccccc3o2)cc1 |  | inactive: -27.3%
COc1ccc2[nH]c3c(c2c1)CCN1C(=O)C(CC(=O)NCc2ccc(OC)c(OC)c2)C[C@H](C(=O)N2CCOCC2)[C@@]31CCC1CCCC1 (stereo partly drawn) | inconclusive: 63.1 µM [inhibitor, partial curve, poor fit] | 
Cc1ccc(C(=O)COC(=O)CC23CC4CC(CC(O)(C4)C2)C3)s1 | inconclusive: 126 µM [inhibitor, single point] | 
Cc1ccc(S(=O)(=O)NC[C@H]2O[C@@H](CO)[C@@H](O)[C@H]2N2CCCC2)cc1 | inconclusive: 89.1 µM [inhibitor, partial curve] | 
CCc1ccc(NC(=O)C(C)OC(=O)/C=C/c2ccc(O)c(OC)c2)cc1 (stereo not drawn) | inconclusive: 89.1 µM [inhibitor, single point] | 
CCOC(=O)c1[nH]c(COC(=O)c2ccccc2NC(=O)c2ccco2)c(C(=O)OCC)c1C | inconclusive: 7.08 µM [inhibitor, partial curve, poor fit] | 
O=C(/C=C/c1ccccn1)NCC1Cc2cccc(-c3ncccn3)c2O1 (stereo not drawn) |  | inactive: -25.9%
COc1ccc2cc1Nc1ccc(cc1)C[C@H](NCc1cccc(C(=O)O)c1)C(=O)N(C)[C@H](C(=O)Nc1ccccc1OCc1ccccc1)C2 |  | inactive: -9.55%
Cn1c(=O)c2[nH]c(COc3ccccc3)nc2n(C)c1=O |  | inactive: 18.7%
O=C(c1csc2c1CCCC2)N1CCN(c2ccc(F)cc2)CC1 | inconclusive: 35.5 µM [inhibitor, partial curve, poor fit] | 
CC(C)(C)c1ccc(S(=O)(=O)n2cnc3ccccc32)cc1 | inconclusive: 39.8 µM [inhibitor, single point] | 
O=C1N=C(N2CCOCC2)S/C1=C/c1cccs1 |  | inactive: -21.4%

SMILES | Potency | activity change, negative = inhibition
CC(=O)c1cc(C#N)c(SCC(=O)OC(C)(C)C)nc1C |  | inactive: -29.7%
C[C@@H]1NC(=O)[C@H](CCC(N)=O)NC(=O)c2cc([N+](=O)[O-])cc(I)c2NCCC[C@@H](C(N)=O)NC1=O | inconclusive: 89.1 µM [inhibitor, partial curve, poor fit] | 
C#CCOCCOCCOCCNc1nc(N2CCN(C(=O)[C@H]([C@@H](C)CC)n3cc(CCC(=O)O)nn3)CC2)nc(N2CCN(C(=O)[C@H](Cc3ccc(O)cc3)n3cc(CCO)nn3)CC2)n1 | inconclusive: 11.2 µM [inhibitor, full curve] | 
COc1ccccc1-c1cc2c(ccn2C)c(C(=O)NCCN2CCNC2=O)n1 | inconclusive: 89.1 µM [inhibitor, partial curve, poor fit] | 
COc1cccc(Nc2cc(N3CCOCC3)c3nonc3c2[N+](=O)[O-])c1 | inconclusive: 28.2 µM [inhibitor, single point] | 
COc1ccc(S(=O)(=O)N2CCOCC2)cc1NC(=O)c1cccc(CN2CCCC2=O)c1 | inconclusive: 44.7 µM [inhibitor, partial curve, poor fit] | 
COc1ccc2c(c1)-c1nc(NC(=O)c3ccco3)sc1CC2 | inconclusive: 79.4 µM [inhibitor, partial curve, poor fit] | 
C=CCNc1nc(C(=O)OCC(=O)c2ccc(Cl)cc2)cs1 | inconclusive: 44.7 µM [inhibitor, partial curve, poor fit] | 
CC[C@@]1(C(=O)O)C[C@H](C(=O)N2CCN(C)CC2)[C@H](c2ccc(OC)cc2)N1C | inconclusive: 35.5 µM [inhibitor, full curve, poor fit] | 
Cc1cccc(C)c1OCC(O)CN1CCN(C(=O)c2ccccc2)CC1 (stereo not drawn) | inconclusive: 89.1 µM [inhibitor, single point] | 
CN(C(=O)c1ccccc1OCc1ccc(Cl)cc1)c1ccccc1 |  | inactive: 12%
O=C(C1CCCC1)N1CCN(c2nc3ccccc3o2)CC1 | inconclusive: 0.251 µM [inhibitor, full curve, poor fit] | 
CC(=O)Nc1ccc(S(=O)(=O)[C@H]2CS(=O)(=O)C[C@@H]2N2CCCCC2)cc1 |  | inactive: 21.5%
Cc1ccc(C(=O)/C=C/c2ccc(/C=C/C(=O)c3ccc(C)cc3)o2)cc1 | inconclusive: 1.58 µM [inhibitor, full curve, poor fit] | 
O=C(C[n+]1cc(-c2ccccc2)n2c1CCC2)Nc1nc(-c2ccc(F)cc2)cs1 | inconclusive: 89.1 µM [inhibitor, partial curve, poor fit] | 
O=C(NCc1ccccc1)c1ccc(C2SCCS2)cc1 |  | inactive: 31.6%
CCOC(=O)c1c(N2C(=O)CC(Sc3ccccc3C(=O)O)C2=O)sc(C)c1C (stereo not drawn) | inconclusive: 8.91 µM [inhibitor, full curve] | 
CCN(C[C@H]1N[C@@](Cc2ccccc2)(C(=O)OC)[C@H]2C(=O)N(C)C(=O)[C@@H]12)C(=O)NC(C)C | inconclusive: 79.4 µM [inhibitor, partial curve, poor fit] | 
COCC(=O)Nc1cc(C(=O)N2CCN(c3ccccc3)CC2C)c2c(c1)nc(-c1ccncc1)n2C (stereo not drawn) | inconclusive: 89.1 µM [inhibitor, single point] | 

Rewritten field by field: entries from further up
O=C(NCc1ccccc1)c1ccc(C2SCCS2)cc1
  activity change, negative = inhibition: inactive: 31.6%
CCOC(=O)c1c(N2C(=O)CC(Sc3ccccc3C(=O)O)C2=O)sc(C)c1C (stereo not drawn)
  Potency: inconclusive: 8.91 µM [inhibitor, full curve]
